Laboratory results: PubChem BioAssay AID1259308 (NCATS, 2017)
Purpose: 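Genes whose loss raises luciferase production in HEK293 cells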 (primary screen). System: human HEK293 embryonic kidney cells stably expressing firefly luciferase (HEK-CMV-Luc2-Hygro). Reagents: single siRNA against human genes, 0.8 pmol siRNA per well. Timing: 72 h. Measurement: 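Reporter luminescence and viable-cell signal on separate replicate plates, given as percent of non-targeting control and median/MAD z-scores, plus per-cell luciferase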. Scale: total luciferase, z-score and total luciferase, % of control: higher = more reporter protein produced; luciferase per cell, z-score: higher = more reporter output per viable cell; viable cells, % of control: higher = more viable cells. Rule for the call: 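An siRNA counts as active if its total luciferase robust z-score exceeds 3; genes with two or more such siRNAs out of three were retested with fresh siRNAs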. Calls: active = raised luciferase; inactive = no rise.
In all, the deposit lists about 59,000 reagents; shown is a random part of them. About 1,510 of them (2.6%) were called active. 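Calls use total luciferase alone and ignore viability, so some active siRNAs may act by altering cell number.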 The numbers tell different reagents against one gene apart. Reagent sequences are not shown.

target | siRNA no. | total luciferase, z-score | total luciferase, % of control | luciferase per cell, z-score | viable cells, % of control | outcome
IL23R | 1 | 0.771 | 97.2 | 0.724 | 89.8 | inactive
IL23R | 2 | -0.648 | 69 | -0.781 | 94.7 | inactive
IL23R | 3 | 1.08 | 103 | 0.699 | 96 | inactive
DAP | 1 | 3.15 | 144 | 3.26 | 68.4 | active
DAP | 2 | 0.712 | 96.1 | 1.38 | 74.6 | inactive
DAP | 3 | -0.239 | 77.1 | 0.417 | 77.2 | inactive
C12orf43 | 1 | 4.21 | 166 | 2.38 | 99 | active
C12orf43 | 2 | 2.93 | 140 | 1.6 | 103 | inactive
C12orf43 | 3 | -0.141 | 79.1 | -0.233 | 94 | inactive
RPS16 | 1 | -2.02 | 41.7 | -1.35 | 66.5 | inactive
RPS16 | 2 | -1.85 | 45.1 | -0.726 | 61 | inactive
RPS16 | 3 | -1.98 | 42.5 | -0.798 | 58.6 | inactive
ZSWIM9 | 1 | -0.324 | 75.4 | -0.494 | 96 | inactive
ZSWIM9 | 2 | 0.539 | 92.6 | 0.423 | 92.6 | inactive
ZSWIM9 | 3 | -0.483 | 72.3 | -0.726 | 97.8 | inactive
VHL | 1 | -0.609 | 69.8 | -0.049 | 79 | inactive
VHL | 2 | -0.219 | 77.5 | 1.04 | 65.9 | inactive
VHL | 3 | 0.162 | 85.1 | 0.321 | 87.4 | inactive
TMEM154 | 1 | 1.92 | 120 | 1.17 | 98.5 | inactive
TMEM154 | 2 | -0.715 | 67.7 | -0.648 | 89.7 | inactive
TMEM154 | 3 | -0.783 | 66.3 | -0.103 | 76.1 | inactive
TPT1P8 | 1 | 2.33 | 128 | 1.73 | 91 | inactive
TPT1P8 | 2 | 0.129 | 84.4 | 0.19 | 89.8 | inactive
TPT1P8 | 3 | -0.385 | 74.2 | -0.492 | 94.4 | inactive
GPN1 | 1 | -2.69 | 28.3 | -3.91 | 88.6 | inactive
GPN1 | 2 | -1.92 | 43.7 | -1.46 | 71.7 | inactive
GPN1 | 3 | -1.13 | 59.5 | -1.4 | 96.1 | inactive
WDR62 | 1 | -1.9 | 44 | -1.18 | 67.1 | inactive
WDR62 | 2 | -0.528 | 71.4 | -0.475 | 90.4 | inactive
WDR62 | 3 | 2.63 | 134 | 1.13 | 112 | inactive

Continued, starting with the last 6 of the part before.
target | siRNA no. | total luciferase, z-score | total luciferase, % of control | luciferase per cell, z-score | viable cells, % of control | outcome
GPN1 | 1 | -2.69 | 28.3 | -3.91 | 88.6 | inactive
GPN1 | 2 | -1.92 | 43.7 | -1.46 | 71.7 | inactive
GPN1 | 3 | -1.13 | 59.5 | -1.4 | 96.1 | inactive
WDR62 | 1 | -1.9 | 44 | -1.18 | 67.1 | inactive
WDR62 | 2 | -0.528 | 71.4 | -0.475 | 90.4 | inactive
WDR62 | 3 | 2.63 | 134 | 1.13 | 112 | inactive
EMC7 | 1 | -1.96 | 42.9 | -1.19 | 65.7 | inactive
EMC7 | 2 | 0.4 | 89.8 | -0.468 | 114 | inactive
EMC7 | 3 | -0.143 | 79 | -0.639 | 104 | inactive
SLC18A3 | 1 | -0.883 | 64.3 | -1.05 | 94.7 | inactive
SLC18A3 | 2 | 0.375 | 89.3 | -0.249 | 107 | inactive
SLC18A3 | 3 | 0.613 | 94.1 | 0.331 | 96.3 | inactive
HS2ST1 | 1 | 2.04 | 122 | 2.12 | 78.4 | inactive
HS2ST1 | 2 | -0.443 | 73.1 | -0.77 | 100 | inactive
HS2ST1 | 3 | 1.13 | 104 | 0.293 | 108 | inactive
CHST9 | 1 | -0.1 | 79.9 | -0.446 | 100 | inactive
CHST9 | 2 | -0.571 | 70.5 | -0.713 | 95.1 | inactive
CHST9 | 3 | 1.04 | 103 | 0.151 | 110 | inactive
OR1E2 | 1 | 0.169 | 85.3 | 0.384 | 86.1 | inactive
OR1E2 | 2 | -1.26 | 56.9 | 0.527 | 55.3 | inactive
OR1E2 | 3 | 0.326 | 88.4 | -0.0623 | 100 | inactive
OR5AR1 | 1 | 0.323 | 88.3 | -0.331 | 108 | inactive
OR5AR1 | 2 | 1.75 | 117 | 1.13 | 96.9 | inactive
OR5AR1 | 3 | -0.433 | 73.3 | 1.13 | 60.9 | inactive
ZNF207 | 1 | 3.71 | 156 | 2.62 | 87.3 | active
ZNF207 | 2 | 0.349 | 88.8 | 1.3 | 70.5 | inactive
ZNF207 | 3 | 2.92 | 140 | 2.1 | 90.1 | inactive
GKN2 | 1 | -0.246 | 77 | 1.05 | 65.3 | inactive
GKN2 | 2 | -1.2 | 58 | -0.945 | 83.1 | inactive
GKN2 | 3 | -0.172 | 78.5 | -0.365 | 96.5 | inactive
RPL31P45 | 1 | 1.14 | 105 | 1.2 | 85.3 | inactive
RPL31P45 | 2 | -0.627 | 69.4 | -0.787 | 95.4 | inactive
RPL31P45 | 3 | 0.12 | 84.3 | 0.699 | 78.3 | inactive
PXDN | 1 | 1.02 | 102 | 0.569 | 98.3 | inactive
PXDN | 2 | 0.305 | 88 | -0.292 | 106 | inactive
PXDN | 3 | -1.02 | 61.6 | -0.64 | 81.5 | inactive
ENKUR | 1 | -0.376 | 74.4 | -0.158 | 86.7 | inactive
ENKUR | 2 | -1.7 | 48.1 | 0.0776 | 52.7 | inactive
ENKUR | 3 | -0.859 | 64.8 | -0.7 | 87 | inactive
ZNF461 | 1 | 1.76 | 117 | 1.07 | 98.6 | inactive
ZNF461 | 2 | 1.06 | 103 | 0.917 | 90.4 | inactive
ZNF461 | 3 | 1.17 | 105 | 0.91 | 92.4 | inactive
PAG1 | 1 | -0.265 | 76.6 | 0.524 | 74.6 | inactive
PAG1 | 2 | 1.87 | 119 | 1.31 | 94.2 | inactive
PAG1 | 3 | 0.908 | 100 | 0.781 | 90.9 | inactive
RASL11B | 1 | 0.179 | 85.4 | -0.0479 | 96.7 | inactive
RASL11B | 2 | -0.518 | 71.6 | -0.301 | 86.6 | inactive
RASL11B | 3 | -0.642 | 69.1 | -0.396 | 85.7 | inactive
PTGR1 | 1 | 0.973 | 101 | 0.887 | 89.6 | inactive
PTGR1 | 2 | -1.22 | 57.6 | -2.29 | 118 | inactive
PTGR1 | 3 | 0.278 | 87.4 | 0.655 | 82.2 | inactive
